This is an account of results in publication PMC13172425.

These are yes or no findings as the source states them, for the method shown. In cells and extracts the contact can be indirect. Some entries that bind do so weakly or less than the wild type. Where a sequence is shown, tags or fusion partners need not be part of it.

Assay [1] concerns the target FOXK2 with a C-terminal Flag tag, Q01167. Description: co-IP; FOXK2-Flag captured on anti-FLAG gel (FLAG Immunoprecipitation Kit) from 0.7 mg lysate of transfected HEK-293 cells, overnight at 4 °C; basal (standard) lysis and wash; blots with anti-Myc, anti-FLAG, anti-KAT8, anti-Naa50. The conditions noted are these: remark: other sources report otherwise.
Assay [2] shares this target. Description: co-IP; as the basal co-IP, but cells sonicated in high salt buffer and first wash with 1 mL high salt buffer, 2nd and 3rd wash with 50 mM HEPES pH 7.5, 150 mM NaCl. The conditions noted are these: remark: other sources report otherwise.

B1: OGT with an N-terminal Myc tag, O15294 1-1046 (enzyme)
chain: MASSVGNVADSTEPTKRMLSFQGLAELAHREYQAGDFEAAERHCMQLWRQEPDNTGVLLLLSSIHFQCRRLDRSAHFSTLAIKQNPLLAEAYSNLGNVYKERGQLQEAIEHYRHALRLKPDFIDGYINLAAALVAAGDMEGAVQAYVSALQYNPDLYCVRSDLGNLLKALGRLEEAKACYLKAIETQPNFAVAWSNLGCVFNAQGEIWLAIHHFEKAVTLDPNFLDAYINLGNVLKEARIFDRAVAAYLRALSLSPNHAVVHGNLACVYYEQGLIDLAIDTYRRAIELQPHFPDAYCNLANALKEKGSVAEAEDCYNTALRLCPTHADSLNNLANIKREQGNIEEAVRLYRKALEVFPEFAAAHSNLASVLQQQGKLQEALMHYKEAIRISPTFADAYSNMGNTLKEMQDVQGALQCYTRAIQINPAFADAHSNLASIHKDSGNIPEAIASYRTALKLKPDFPDAYCNLAHCLQIVCDWTDYDERMKKLVSIVADQLEKNRLPSVHPHHSMLYPLSHGFRKAIAERHGNLCLDKINVLHKPPYEHPKDLKLSDGRLRVGYVSSDFGNHPTSHLMQSIPGMHNPDKFEVFCYALSPDDGTNFRVKVMAEANHFIDLSQIPCNGKAADRIHQDGIHILVNMNGYTKGARNELFALRPAPIQAMWLGYPGTSGALFMDYIITDQETSPAEVAEQYSEKLAYMPHTFFIGDHANMFPHLKKKAVIDFKSNGHIYDNRIVLNGIDLKAFLDSLPDVKIVKMKCPDGGDNADSSNTALNMPVIPMNTIAEAVIEMINRGQIQITINGFSISNGLATTQINNKAATGEEVPRTIIVTTRSQYGLPEDAIVYCNFNQLYKIDPSTLQMWANILKRVPNSVLWLLRFPAVGEPNIQQYAQNMGLPQNRIIFSPVAPKEEHVRRGQLADVCLDTPLCNGHTTGMDVLWAGTPMVTMPGETLASRVAASQLTCLGCLELIAKNRQEYEDIAVKLGTDLEYLKKVRGKVWKQRISSPLFNTKQYTMELERLYLQMWEHYAAGNKPDHMIKPVEVTESA
Turning to B1, the binding result in assay [1] and in assay [2] was “binds” in each case.
